# Laboratory results: PubChem BioAssay AID743458 (Peter MacCallum Cancer Centre, 2014)
# Screen: 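Retest earlier hits with independent siRNAs per gene for restoring vorinostat sensitivity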 (follow-up of hits)
# System: human HCT116-VR colon cancer cells made resistant to vorinostat
# Reagent: single siRNA or pool against human genes, 25 nM per single siRNA
# Timing: about 72 h after transfection, including 24 h of drug
# Challenge: vorinostat, 2.5 µM final, for 24 h
# Detection: 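Live-cell fluorescent viability and luminescent caspase 3/7 activity after vorinostat treatment, background subtracted, mean of duplicate plates, as fold change over mock-transfected wells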
# Reading the numbers: viability relative to mock: higher = more living cells than mock; caspase activity relative to mock: higher = more apoptosis than mock
# Rule for the call: 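An siRNA counts as active if classed as reduced viability or as caspase activation, otherwise inactive; a hit class needed wells that remained healthy in the absence of drug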
# Here is a random part of about 1,800 deposited reagents. In the full data, 732 (41%) were called active. 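Calls are per siRNA reagent; a gene was deemed confirmed only if most of its four siRNAs scored.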 Entries without a mark were called inactive. The numbers tell different reagents against one gene apart. Reagent sequences are not shown.
target gene,reagent no.,viability relative to mock,caspase activity relative to mock,viability hit class,caspase hit class
FADS1 (fatty acid desaturase 1),1,0.68 (active),3.01,no change,caspase activation
FADS1 (fatty acid desaturase 1),2,0.67,0.99,no change,no change
FADS1 (fatty acid desaturase 1),3,0.78,0.66,no change,no change
FADS1 (fatty acid desaturase 1),4,0.42 (active),4.92,reduced viability,caspase activation
CCL25 (C-C motif chemokine ligand 25),1,0.64 (active),6.73,no change,caspase activation
CCL25 (C-C motif chemokine ligand 25),2,0.96,1.84,no change,no change
CCL25 (C-C motif chemokine ligand 25),3,0.66,1.15,no change,no change
CCL25 (C-C motif chemokine ligand 25),4,0.26 (active),3.89,reduced viability,caspase activation
CWC22 (CWC22 spliceosome associated protein),1,0.49 (active),2.56,reduced viability,no change
CWC22 (CWC22 spliceosome associated protein),2,0.38 (active),1.44,reduced viability,no change
CWC22 (CWC22 spliceosome associated protein),3,0.44 (active),2.1,reduced viability,no change
CWC22 (CWC22 spliceosome associated protein),4,0.34 (active),2.37,reduced viability,no change
ADRA2C (adrenoceptor alpha 2C),1,0.5 (active),1.6,reduced viability,no change
ADRA2C (adrenoceptor alpha 2C),2,1.01,0.86,no change,no change
ADRA2C (adrenoceptor alpha 2C),3,0.68,1.18,no change,no change
ADRA2C (adrenoceptor alpha 2C),4,0.98,1.07,no change,no change
NPBWR2 (neuropeptides B and W receptor 2),1,0.96,1.91,no change,no change
NPBWR2 (neuropeptides B and W receptor 2),2,0.7 (active),3.5,no change,caspase activation
NPBWR2 (neuropeptides B and W receptor 2),3,0.78,1.06,no change,no change
NPBWR2 (neuropeptides B and W receptor 2),4,0.84 (active),2.59,no change,caspase activation
MED20 (mediator complex subunit 20),1,0.79,1.6,no change,no change
MED20 (mediator complex subunit 20),2,0.55 (active),4.64,reduced viability,caspase activation
MED20 (mediator complex subunit 20),3,0.62,0.72,no change,no change
MED20 (mediator complex subunit 20),4,0.95,1.83,no change,no change
ZBTB2 (zinc finger and BTB domain containing 2),1,1.05,1.21,no change,no change
ZBTB2 (zinc finger and BTB domain containing 2),2,0.94,1.86,no change,no change
ZBTB2 (zinc finger and BTB domain containing 2),3,0.84,0.99,no change,no change
ZBTB2 (zinc finger and BTB domain containing 2),4,0.06,1.74,no change,no change
RNF19B (ring finger protein 19B),1,0.94,1.56,no change,no change
RNF19B (ring finger protein 19B),2,1.01,1.14,no change,no change
RNF19B (ring finger protein 19B),3,1.07,1.81,no change,no change
RNF19B (ring finger protein 19B),4,1.07,1.36,no change,no change
SPAG1 (sperm associated antigen 1),1,0.9,1.04,no change,no change
SPAG1 (sperm associated antigen 1),2,0.82,1.04,no change,no change
SPAG1 (sperm associated antigen 1),3,0.68,0.93,no change,no change
SPAG1 (sperm associated antigen 1),4,0.12,1.37,no change,no change
PRPF8 (pre-mRNA processing factor 8),1,0.44,1.62,no change,no change
PRPF8 (pre-mRNA processing factor 8),2,0.53 (active),1.85,reduced viability,no change
PRPF8 (pre-mRNA processing factor 8),3,0.46 (active),2.29,reduced viability,no change
PRPF8 (pre-mRNA processing factor 8),4,0.64 (active),2.75,no change,caspase activation
SEC61B (SEC61 translocon subunit beta),1,0.24,2.91,no change,no change
SEC61B (SEC61 translocon subunit beta),2,0.8,1.27,no change,no change
SEC61B (SEC61 translocon subunit beta),3,0.94,0.95,no change,no change
SEC61B (SEC61 translocon subunit beta),4,0.5 (active),2,reduced viability,no change
GPER1 (G protein-coupled estrogen receptor 1),1,0.52 (active),3.52,reduced viability,caspase activation
GPER1 (G protein-coupled estrogen receptor 1),2,0.9 (active),2.66,no change,caspase activation
GPER1 (G protein-coupled estrogen receptor 1),3,0.59,2.34,no change,no change
GPER1 (G protein-coupled estrogen receptor 1),4,0.9,2.02,no change,no change
SYTL3 (synaptotagmin like 3),1,1.01,1.04,no change,no change
SYTL3 (synaptotagmin like 3),2,0.96,1.04,no change,no change
SYTL3 (synaptotagmin like 3),3,0.98,1.49,no change,no change
SYTL3 (synaptotagmin like 3),4,1.04,1.14,no change,no change
PPP4R4 (protein phosphatase 4 regulatory subunit 4),1,1.08,1.56,no change,no change
PPP4R4 (protein phosphatase 4 regulatory subunit 4),2,0.22 (active),2.5,reduced viability,no change
PPP4R4 (protein phosphatase 4 regulatory subunit 4),3,0.65,1.73,no change,no change
PPP4R4 (protein phosphatase 4 regulatory subunit 4),4,0.94,1.61,no change,no change
CCDC59 (coiled-coil domain containing 59),1,0.62,2.34,no change,no change
CCDC59 (coiled-coil domain containing 59),2,1.12,1.77,no change,no change
CCDC59 (coiled-coil domain containing 59),3,0.61 (active),4.21,no change,caspase activation
CCDC59 (coiled-coil domain containing 59),4,0.71 (active),2.65,no change,caspase activation

Not a retest: an excerpt of the list.
target gene,reagent no.,viability relative to mock,caspase activity relative to mock,viability hit class,caspase hit class
RNF19B (ring finger protein 19B),4,1.07,1.36,no change,no change
SPAG1 (sperm associated antigen 1),1,0.9,1.04,no change,no change
SPAG1 (sperm associated antigen 1),2,0.82,1.04,no change,no change
